Drawing on publication PMC6459286, “Intestinal TGR5 agonism improves hepatic steatosis and insulin sensitivity in Western diet-fed mice” (American Journal of Physiology - Gastrointestinal and Liver …, 2019), this text covers Papp B→A and recovery for one molecule.

SMILES strings stand for the structures.

This data set has as its system P-gp. Kind of data set: MDCK bidirectional permeability assay. The settings on record: dog; for recovery: with verapamil 100 µM on the A and B sides, + verapamil 100 μM.

By Papp B→A is commonly meant how fast a substance crosses the layer from the basolateral side. As for `CC(C)NCC(O)COc1ccc(CC(N)=O)cc1` (stereo not drawn) [Atenolol], the Papp B→A at 10 µM was determined as 0.64 ×10⁻⁶ cm/s. Also, the recovery (A→B) was found to be 113%. The recovery (B→A) amounted to 106%.
